Measured values from patent US5561110A, “Method for the treatment of the complications and pathology of diabetes” (Peptide Technology Limited, priority 1994, dated 1996).

Tests used:
[1] = Maillard reaction products with sorbitol (non-reducing sugar), optical density at 400 nm; details: with sorbitol 250 mg/ml, compound 500 mM, 50° C., 18 h
[2] = Maillard reaction products with glucose, optical density at 400 nm; details: 50° C., 18 h; for OD 400 nm of Maillard reaction products: with glucose 250 mg/ml, compound 500 mM
[3] = Glycation of peptides and amino acid analogues by DHA, loss of free amino group by HPLC; details: part A: compound alone, DHA in PBS, 5 hours, 60° C.

SMILES	OD 400 nm of Maillard reaction products [1]	OD 400 nm of Maillard reaction products [2]	% reacted (amino groups reacted with DHA) [3] [%]	also measured
CC(N)C(=O)O (racemic) [D, L-alanine]	0.008	0.266	–	–
CNC(=O)[C@H](CCCCN)NC(C)=O [AC-Lys-NH2 Me, Ac-Lys-NHMe]	–	–	21	–
CC(=O)N[C@@H](CCCCN)C(=O)N[C@@H](Cc1c[nH]cn1)C(N)=O [Ac-Lys-His-NH2]	–	–	25	–
NCCC(=O)N[C@H](Cc1c[nH]cn1)C(=O)O [Beta-Ala-D-His-OH, beta-alanyl-D-histidine]	–	–	26	–
NCCC(=O)NCC(=O)O [Beta-Ala-Gly-OH, beta-alanyl-glycine]	–	–	2	–
NCCCC(=O)N[C@@H](Cc1c[nH]cn1)C(=O)O [Gamma-aminobutyryl-His-OH, gamma-amino-butyryl-L-histidine]	–	–	15	–
N=C(N)NCCC[C@H](N)C(=O)O [L-arginine]	0.010	0.469	–	–
NCCCC[C@H](N)C(=O)O [L-lysine]	0.009	170	17	–
NCCCC[C@H](NC(=O)OCc1ccccc1)C(=O)O [Z-Lys-OH, N-alpha-carbobenzox-yl-lysine]	–	–	3	–
NCCC(=O)O [beta-alanine]	0.010	1.240	–	–
NCCC(=O)N[C@@H](Cc1c[nH]cn1)C(=O)O [carnosine, β-alanyl-L-histidine]	0.209	8.455	26	OD 400 nm ([2]; compound + PBS, no sugar): 0.041; Maillard reaction product formed relative to L-lysine ([2]; glucose): approximately 2 times; Maillard reaction product formed relative to beta-alanine ([2]; glucose): ~8 times
c1c[nH]cn1 [imidazole]	0.035	0.046	–	–
